Test [1] has as its target T1, GST-tagged human SURF4^49–60 (predicted first luminal loop of surfeit locus protein 4) (human) (UniProt O15260).
T1 sequence: SEQRDYIDTTWN
Nature of the test: pull-down; about 5 μg GST-SURF4^49–60 (WT or MT) on 10 μl GSH beads, incubated with 200 μl of 0.5 mg/ml lysate of transfected HEK293T cells in KOAc buffer (110 mM KOAc, 2 mM Mg(OAc)2, 20 mM Hepes, pH 7.2), 4 °C overnight; washed with 0.5 M KOAc buffer and KOAc buffer; immunoblot with anti-HA; only the target purified. For orientation: Immunoblotting shows a protein as a band on a membrane.

Amino acid sequences for entries named in this document (tags omitted). A change or cut given only in a name is not applied to a line headed by its entry.
UniProt O15260: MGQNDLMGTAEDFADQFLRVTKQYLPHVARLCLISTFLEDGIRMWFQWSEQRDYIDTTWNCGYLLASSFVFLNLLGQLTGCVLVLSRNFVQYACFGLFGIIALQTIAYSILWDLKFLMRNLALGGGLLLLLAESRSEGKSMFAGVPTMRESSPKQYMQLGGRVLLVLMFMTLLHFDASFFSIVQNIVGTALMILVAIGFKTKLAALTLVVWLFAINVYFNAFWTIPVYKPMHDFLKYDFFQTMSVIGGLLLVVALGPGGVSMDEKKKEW
UniProt Q7Z5Y6: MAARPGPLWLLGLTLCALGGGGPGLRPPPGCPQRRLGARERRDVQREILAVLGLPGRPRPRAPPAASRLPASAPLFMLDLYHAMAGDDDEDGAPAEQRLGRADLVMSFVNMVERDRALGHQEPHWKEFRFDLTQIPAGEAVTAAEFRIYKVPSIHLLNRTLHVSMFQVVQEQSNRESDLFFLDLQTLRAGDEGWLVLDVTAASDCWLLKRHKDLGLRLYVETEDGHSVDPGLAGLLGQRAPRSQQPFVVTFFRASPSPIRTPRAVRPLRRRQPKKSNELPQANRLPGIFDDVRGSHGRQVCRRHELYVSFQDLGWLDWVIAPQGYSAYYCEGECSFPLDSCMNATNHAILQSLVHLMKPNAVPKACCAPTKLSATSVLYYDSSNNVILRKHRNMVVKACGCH
UniProt Q8N474: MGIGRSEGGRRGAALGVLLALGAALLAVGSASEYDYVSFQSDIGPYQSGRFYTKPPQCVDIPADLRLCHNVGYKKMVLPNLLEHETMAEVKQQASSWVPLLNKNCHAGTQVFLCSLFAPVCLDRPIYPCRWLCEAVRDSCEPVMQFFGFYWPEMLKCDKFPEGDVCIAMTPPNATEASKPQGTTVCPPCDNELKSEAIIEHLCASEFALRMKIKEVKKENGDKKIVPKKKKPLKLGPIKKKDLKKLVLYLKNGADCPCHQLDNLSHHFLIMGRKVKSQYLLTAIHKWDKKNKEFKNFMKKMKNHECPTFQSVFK

Test [2] concerns the target T2, GST-tagged human SURF4^49–60 with E50, D53 and D56 substituted to alanine (triacidic motif-mutated) (human) (UniProt O15260).
T2 sequence: SAQRAYIATTWN
Described as above.

These are yes or no findings as the source states them, for the method shown. Binding seen in cells or lysates may run through a third protein. Binding calls can cover weak binding; strength is not graded here. Sequences can lack the tags named with a protein.

Take “C-terminal 3 × HA-tagged BMP8A (bone morphogenetic protein 8A) (from UniProt Q7Z5Y6)”: the binding entry in test [1] and in test [2] was “binds” throughout.
As for “SFRP1-HA with the (K/R)(K/R)(K/R)XX(K/R)(K/R) motif deleted (from UniProt Q8N474)”, the binding entry in test [1] is “binds”.
As for “polybasic motif–depleted BMP8A-HA (from UniProt Q7Z5Y6)”, in test [1], the binding result is “binds”.

These data come from article PMC9731852.
